# Source: PubChem BioAssay AID2718 (Broad Institute, 2010)
# Sequences of proteins named here, by UniProt entry; tags and fusion partners are left off.
# UniProt O15379, whole entry, looked up: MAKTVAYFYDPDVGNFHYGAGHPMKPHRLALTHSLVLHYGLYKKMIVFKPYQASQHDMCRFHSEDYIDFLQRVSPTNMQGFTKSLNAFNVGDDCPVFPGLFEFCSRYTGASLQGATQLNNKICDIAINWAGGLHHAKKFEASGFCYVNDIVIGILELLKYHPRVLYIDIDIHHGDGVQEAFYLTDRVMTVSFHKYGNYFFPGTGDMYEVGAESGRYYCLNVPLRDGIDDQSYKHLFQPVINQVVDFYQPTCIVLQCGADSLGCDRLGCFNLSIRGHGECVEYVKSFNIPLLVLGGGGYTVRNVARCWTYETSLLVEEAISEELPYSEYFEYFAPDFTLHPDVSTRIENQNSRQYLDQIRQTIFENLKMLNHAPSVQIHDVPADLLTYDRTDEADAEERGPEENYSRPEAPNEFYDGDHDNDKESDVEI
# Screen size: about 320,000 compounds; about 480 (0.15%) were called active. Inconclusive means that the source gave no clear call. Such entries were picked first, then a sample of the others. No stated cut-off is given here; in the data, active means inhibition above about 26% (passing the limit was not always enough); inconclusive means no clear call, values can overlap the other calls.
# Target: Histone deacetylase 3 (Homo sapiens) (UniProt O15379)
# Experiment: HDAC3 deacetylase inhibitors, primary screen, biochemical, fluorescence, cell-free homogeneous (AID 2718)
# Conditions: recombinant HDAC3, fluorogenic peptide/trypsin coupled, at 8.3 µM, active compounds read high
row,SMILES,inhibition
1,CCOC(=O)c1ccccc1NC(=O)COC(=O)C(CCSC)NC(=O)COc1ccccc1 (stereo not drawn),inconclusive: 21.3%
2,CC(C)OC(=O)c1ccc(COC(=O)c2cccc(-c3nnc(-c4ccccc4)o3)c2)cc1,inactive: -3.5%
3,Cc1ccc(-c2noc(CSc3nnc(Cc4ccccc4)n3-c3cccc(C)c3)n2)cc1,inconclusive: 25.3%
4,O=C(Oc1cc(=O)n2ccccc2n1)c1ccccc1,active: 38.2%
5,CC(=O)Nc1cc(C(=O)c2ccccc2)ccc1N1CCOCC1,inconclusive: 16.1%
6,O=C(Oc1ccc2cc(Br)ccc2c1)c1cccnc1,inconclusive: 22.5%
7,Cc1cc(C)cc(NC(=O)C(=O)NCc2ccccn2)c1,inconclusive: 18%
8,CSc1ccc(-c2ccco2)nn1,inconclusive: 20.4%
9,COc1cccc(C(=O)CSc2nc3cccnc3n2C)c1,inconclusive: 16%
10,CC(C)C(=O)Nc1ccc(NC(=O)c2ccccn2)cn1,inconclusive: 19.9%
11,COC(=O)C1=NN(N=O)C2(CC(=O)N(c3cc(C)cc(C)c3)C2=O)C1 (stereo not drawn),inactive: 2.88%
12,CCOC(=O)C1CCCN(C(=O)c2ccc(C)c(NC(=O)C3=C(C)OCCS3)c2)C1 (stereo not drawn),inconclusive: 15.1%
13,Fc1c(F)c(F)c(N/N=C/c2c[nH]c3ccccc23)c(F)c1F,active: 32.1%
14,Cn1cc(CCC(=O)N2CCCC(CCC(=O)NCc3ccc(F)c(F)c3)C2)cn1 (stereo not drawn),inactive: -1.08%
15,O=C(c1ccc(-c2cccc(C(F)(F)F)c2)o1)N1CCCC(C(F)(F)F)C1 (stereo not drawn),active: 29.8%
16,Cc1ncsc1CCOC(=O)c1ccc(Cl)cc1,inconclusive: 16.8%
17,CCOc1ccc(C2CC(=O)n3nc(C45CC6CC(CC(C6)C4)C5)nc3S2)cc1OC (stereo not drawn),inconclusive: 11.3%
18,COc1ccccc1Nc1cc(C(=O)NC2CCCC2)c2ccccc2n1,inconclusive: 8.07%
19,O=C(c1ccc(-c2ccccc2)cc1)C1CCCN(Cc2ccncc2)C1 (stereo not drawn),inactive: 8.61%
20,Cc1cc(C)c2cc(C(O)c3nnnn3Cc3ccccc3)c(=O)[nH]c2c1 (stereo not drawn),inconclusive: 19.7%

row,SMILES,inhibition
1,O=S(=O)(c1cccc(Cl)c1)N1CN(CC2CCCO2)c2nc3ccccc3nc21 (stereo not drawn),inconclusive: 14.3%
2,O=C(O)c1ccc2noc(-c3ccccc3)c2c1,inconclusive: 10%
3,Cc1cc(C)nc(SCc2cn3c(C)cccc3n2)n1,inactive: 1.7%
4,CCC(Sc1nc(=O)cc(N)n1-c1ccccc1)C(=O)Nc1cc(C)on1 (stereo not drawn),inconclusive: 10.6%
5,CCOC(=O)N1C(=O)[C@@](CC)(c2ccccc2)N1C(=O)OCC,active: 35.3%
6,COC(=O)CS(=O)(=O)c1nnc([C@H](Cc2ccccc2)NC(=O)OC(C)(C)C)o1,active: 55.4%
7,Cc1ccc(NC(=O)CCCOc2ccccc2)cc1S(=O)(=O)N1CCOCC1,inactive: 0.357%
8,CCOC(=O)c1c(CN2CCC(C)CC2)oc2ccc(OC)cc12,inconclusive: 17.4%
9,O=C(CCc1nc(-c2ccccc2F)no1)Nc1ccc(Oc2ccccc2)cc1,active: 26.9%
10,CCOc1ccccc1CN1CCC(n2nccc2NC(=O)CCc2ccccc2)CC1,inconclusive: 13.1%
11,COc1ccc(/C=N/NC(=O)c2ccccc2O)cc1Cn1cc([N+](=O)[O-])cn1,inactive: 11.9%
12,CC(=O)N1CCN(C(=O)c2ccc(Cl)c(NC(=O)c3cccs3)c2)CC1,inconclusive: 18.1%
13,CC(C)c1ccc(NC(=O)COc2ccc(C3SCCS3)cc2)cc1,inconclusive: 21%
14,Cc1cc(Cl)c(OCCOCCN2CCCC(C)C2)c(Br)c1 (stereo not drawn),inactive: -11.6%
15,COc1ccc(C(=O)n2cnnc2N)cc1,active: 81%
16,O=C(Nc1ccccn1)c1ccc(S(=O)(=O)N2CCCCCC2)cc1,inactive: -6.3%
17,COc1cccc(N2CCN(C(=S)Nc3cc(C)cc(C)c3)CC2)c1,inactive: -0.894%
18,COc1ccc(/C=C(/C(=O)c2ccc(Cl)cc2Cl)n2cncn2)cc1,inconclusive: 25.8%
19,CN1C(=O)c2ccc(C(=O)Nc3ccccc3O)cc2C1=O,inconclusive: 44.1%
20,COc1ccc(C2(CNC(C)=O)CCCC2)cc1OC,inactive: -4.83%

# Individual results from above.
# inhibition, O=C(Nc1ccccn1)c1ccc(S(=O)(=O)N2CCCCCC2)cc1 reads inactive: -6.3%
# inhibition, CCOc1ccc(C2CC(=O)n3nc(C45CC6CC(CC(C6)C4)C5)nc3S2)cc1OC (stereo not drawn) reads inconclusive: 11.3%
# inhibition, O=S(=O)(c1cccc(Cl)c1)N1CN(CC2CCCO2)c2nc3ccccc3nc21 (stereo not drawn) reads inconclusive: 14.3%
# inhibition, CC(C)OC(=O)c1ccc(COC(=O)c2cccc(-c3nnc(-c4ccccc4)o3)c2)cc1 reads inactive: -3.5%

# (continued)

row,SMILES,inhibition
1,O=C(c1cccc(S(=O)(=O)N2CCCCC2)c1)N1CCCCC1,inconclusive: 16.1%
2,CC1(C)CC(=O)C(CC2=C(O)CC(C)(C)CC2=O)=C(O)C1,inconclusive: 15%
3,COc1ccc(C(=O)Oc2ccc[nH]c2=O)cc1,inactive: 7.57%
4,Cc1cccc(NC(=O)CCc2nnc3ccc(N4CCC(C)CC4)nn23)n1,inconclusive: 22.2%
5,O=C1N[C@H](Cc2ccccc2)COC(=O)[C@@H](Cc2ccc(F)cc2)CC/C=C/C[C@H]1CC(=O)N(CCO)Cc1ccccc1,active: 28.7%
6,COC(=O)c1ccc(OC(=O)c2cccnc2)cc1,active: 41.7%
7,Cc1cc(C(=O)NNC(=O)c2cccc(N(C)C)c2)c(C)o1,inconclusive: 17.8%
8,CCOC(=O)N1CCN(C(c2cccc(OC)c2)c2sc3nc(C)nn3c2O)CC1 (stereo not drawn),inconclusive: 14%
9,CCC(Oc1ccccc1)C(=O)O/N=C(\N)c1ccc(OC)c(OC)c1 (stereo not drawn),inconclusive: 19%
10,[O-][n+]1onc2c1CCc1c-2nn(-c2ccccc2Cl)[n+]1[O-],inconclusive: 17.8%
11,O=C1CC(c2ccccc2)CC(O)=C1C=Nc1ccc(O)cc1 (stereo not drawn),inconclusive: 31.1%
12,CC(=O)c1nn(-c2ccccc2)cc1C(=O)c1ccc(C)cc1,inactive: 6.27%
13,CCNC(=S)NNC(=O)CSc1nc2ccccc2[nH]1,inactive: 2.12%
14,O=C(NCc1ccco1)c1ccc(COc2ccccc2Cl)cc1,inactive: -3.21%
15,COc1ccc(S(=O)(=O)N2CCCN(CC(=O)C(C)(C)C)CC2)cc1,inconclusive: 17.1%
16,COc1cc(/C=C/C(=O)OC(C)C(=O)Nc2c(C)n(C)n(-c3ccccc3)c2=O)ccc1O (stereo not drawn),inactive: -2.27%
17,CCCCCCSc1ccc([C@H]2N[C@@](CC(C)C)(C(=O)OC)[C@H]3C(=O)N(CC)C(=O)[C@@H]23)cc1,inconclusive: 17.3%
18,Cc1cc(=O)n2nc(N3CCCC(C(=O)NCc4ccc(Cl)cc4)C3)sc2n1 (stereo not drawn),inconclusive: 26.7%
